Measurements published in patent US20010018073A1, “Transdermal compositions with enhanced skin penetration properties” (JENAPHARM GMBH & CO., KG, priority 1997, published 2001).
At least one structure is not confirmed: it was looked up by name or label, or the drawing left a doubt.

Experiment: T2 relaxation times of destructuring and structuring agents in water
Format: physicochemical
Conditions: solute in water, concentration 0.5 mol/l

SMILES | T2 relaxation time [ms]
OC[C@@H](O)[C@@H](O)[C@H](O)[C@@H](O)CO [Sorbitol] | 119.4
NC(=O)c1cccnc1 [Nicotinamide] | 276
